# Hit rate of the full screen: of about 360,000 compounds, about 10,000 (2.8%) were called active. This list was built around the results that the source calls inconclusive (neither active nor inactive); the mix of calls is not that of the screen. Calls follow the shape of the dose curve; as a rule, active = well fitted inhibition curve with a large enough effect; inconclusive = small, poorly fitted or top-dose-only effect; inactive = flat fitted curve, though single readings scatter. Where the call is inconclusive, the potency comes from a doubtful curve fit.
# Amino acid sequences for entries named in this document (tags omitted).
# UniProt P53350, whole entry, looked up: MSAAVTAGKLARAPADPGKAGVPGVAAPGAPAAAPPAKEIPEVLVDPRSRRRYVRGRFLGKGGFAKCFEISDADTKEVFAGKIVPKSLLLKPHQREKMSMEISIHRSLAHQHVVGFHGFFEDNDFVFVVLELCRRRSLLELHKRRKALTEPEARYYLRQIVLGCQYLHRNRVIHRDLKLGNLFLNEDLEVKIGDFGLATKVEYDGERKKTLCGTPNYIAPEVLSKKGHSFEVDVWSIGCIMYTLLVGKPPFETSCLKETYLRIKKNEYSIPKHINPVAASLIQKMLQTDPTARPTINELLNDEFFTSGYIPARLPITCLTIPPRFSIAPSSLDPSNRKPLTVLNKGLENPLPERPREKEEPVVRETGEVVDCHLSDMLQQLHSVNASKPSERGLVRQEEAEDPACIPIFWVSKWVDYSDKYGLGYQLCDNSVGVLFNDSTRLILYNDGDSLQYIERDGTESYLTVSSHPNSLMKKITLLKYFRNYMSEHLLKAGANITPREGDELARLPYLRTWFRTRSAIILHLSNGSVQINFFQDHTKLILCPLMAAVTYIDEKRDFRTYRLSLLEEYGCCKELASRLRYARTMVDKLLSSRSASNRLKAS
# Molecular target: Serine/threonine-protein kinase PLK1 (Homo sapiens) (UniProt P53350)
# Assay: qHTS for Inhibitors of PLK1-PDB (polo-like kinase 1 - polo-box domain): Primary Screen; also: nearly all actives have a fitted effect of over 65% in size; as to max response, negative = inhibition: series mostly up to about 57 µM
# Details: Plk1 PBD binding of FITC phosphopeptide, fluorescence polarization
# % is scaled to controls: 0 for no effect and ±100 for the full control effect; potency is read from the fitted curve at half-maximal effect.
Compound,Potency,"max response, negative = inhibition"
CN1CCN(C(=S)c2cn(CCOc3ccccc3F)c3ccccc23)CC1,"inconclusive: 21.2 µM [inhibitor, partial curve]",–
Cc1ccc(N2NC(=O)/C(=C/c3ccc(-c4ccc(Cl)c(C(=O)O)c4)o3)C2=O)cc1C,"inconclusive: 29.9 µM [inhibitor, partial curve]",–
O=[N+]([O-])c1ccc(NC(=S)N/C(=N/CS(=O)(=O)c2ccccc2)c2ccccc2)cc1,active: 18.9 µM,–
CCOC(=O)C1CCN(S(=O)(=O)c2ccc3c(c2)CCN3C(=O)C2CCC2)CC1,active: 26.7 µM,–
O=C(CN1CCN(c2ncccn2)CC1)N1CCc2ccccc21,"inconclusive: 26.7 µM [inhibitor, partial curve]",–
CC(=O)Nc1cc(-c2ccccc2)cn2c(-c3cccc(C(C)=O)c3)cnc12,"inconclusive: 16.8 µM [inhibitor, partial curve]",–
CCN1CCC(O)(/C=C/c2ccc(C)cc2)C(C(=O)/C=C/c2ccc(C)cc2)C1 (stereo not given),"inconclusive: 18.9 µM [inhibitor, partial curve]",–
O=S(=O)(Nc1cc(Sc2cccc3cccnc23)c(O)c2ccccc12)c1ccc(F)cc1,active: 1.5 µM,–
CCNc1nc(-c2cc3ccccc3o2)cs1,"inconclusive: 16.8 µM [inhibitor, partial curve]",–
Cc1c(Cl)cccc1NC(=S)N1CCN(c2ncccn2)CC1,"inconclusive: 4.23 µM [inhibitor, full curve]",–
CCC(C)N(C(=O)CSc1ccc(NC(C)=O)cc1)C1CCS(=O)(=O)C1 (stereo not given),active: 29.9 µM,–
O=C(Nc1ccc(OCc2ccccc2)cc1)c1cccc([N+](=O)[O-])c1,–,inactive: -12.1%
CCOC(=O)N1CCN(C(=O)/C(=C/c2cccs2)NC(=O)c2cccs2)CC1,"inconclusive: 21.2 µM [inhibitor, single point]",–
CCOC(=O)c1c(NC(=O)C2c3ccccc3Oc3ccccc32)sc(C(=O)N(CC)CC)c1C,"inconclusive: 18.9 µM [inhibitor, partial curve]",–
Cc1cccc(N=NC(=S)NNc2cccc(C)c2)c1,"inconclusive: 21.2 µM [inhibitor, partial curve]",–
C/C(=N\O)C(=O)C(CN1CCCCC1)CN1CCCCC1,"inconclusive: 26.7 µM [inhibitor, partial curve]",–
O=C(NC1CCC(O)CC1)c1ccc(-c2ccc([N+](=O)[O-])cc2)o1 (stereo not given),"inconclusive: 29.9 µM [inhibitor, single point]",–
CCN(CC)S(=O)(=O)c1ccc(NC(=O)c2cccnc2Cl)c(NC(=O)c2cccnc2Cl)c1,active: 23.8 µM,–
CN(C)c1ccc(C2CC(=O)OC3=C2C(=O)CC(C)(C)C3)cc1 (stereo not given),–,inconclusive: -32.6% [inhibitor]
CCn1ccc(C(=O)Nc2ccc3c(c2)CCC3)n1,–,inactive: 2.6%
O=C1C(=O)c2ccccc2C(O)=C1c1cccc([N+](=O)[O-])c1,active: 26.7 µM,–
Cc1[nH][nH]c(=O)c1C(c1ccc(F)cc1)c1c(C)[nH][nH]c1=O,"inconclusive: 23.8 µM [inhibitor, single point]",–
c1ccc(-c2nc(-c3ccco3)cs2)nc1,"inconclusive: 21.2 µM [inhibitor, single point]",–
COc1ccc(N2CCC(CNC(=S)Nc3c(C)cccc3C)C2)cc1 (stereo not given),"inconclusive: 23.8 µM [inhibitor, single point]",–

Compound,Potency,"max response, negative = inhibition"
Cc1ccc(-c2csc(NC(=O)c3ccno3)n2)cc1,"inconclusive: 26.7 µM [inhibitor, partial curve]",–
Cc1cc2c3ccccc3[nH]c(=O)n2n1,–,inactive: -0.899%
COc1ccc(CC(=O)NNc2ncnc3c2cnn3-c2ccccc2)cc1,"inconclusive: 26.7 µM [inhibitor, single point]",–
COc1cc(/C=C2/C(=N)N3OC(C)=CC3=NC2=O)ccc1OCCOc1ccc(C)cc1,–,inactive: -3.1%
Cc1cc(C)nc(SCc2nnc(SCC(=O)Nc3nc(-c4ccccc4)cs3)n2-c2ccccc2)n1,"inconclusive: 26.7 µM [inhibitor, single point]",–
CCC(Cc1ccccc1)NC(=O)Cn1ncc2ccsc2c1=O (stereo not given),–,inactive: -11.4%
C=CCn1c(SCC(=O)N(C)C2CCS(=O)(=O)C2)nnc1-c1ccccc1 (stereo not given),–,inactive: -8.46%
Cc1onc(-c2ccccc2)c1C(=O)Nc1sc2c(c1C#N)CCC2,"inconclusive: 26.7 µM [inhibitor, partial curve]",–
Cc1cccc(OCC(=O)OCC(=O)Nc2sccc2C(N)=O)c1,–,inactive: -4.12%
COc1ccc(C(=O)O)cc1S(=O)(=O)Nc1ccc(C)cc1,–,inactive: -11.1%
c1ccc(OCc2nn3c(C4CCCCC4)nnc3s2)cc1,"inconclusive: 26.7 µM [inhibitor, partial curve]",–
Nc1ccc2c(c1)C(=O)C(=O)c1ccccc1-2,active: 1.5 µM,–
CCC(=O)Nc1ccc(NC(=O)CSc2nnnn2C(C)C)cc1,"inconclusive: 37.7 µM [inhibitor, single point]",–
COC(=O)c1ccc(-c2ccc(C(c3c(C)[nH][nH]c3=O)c3c(C)[nH][nH]c3=O)o2)cc1,active: 11.9 µM,–
Nc1nc2ccc(C(=O)NCCOC(=O)C3CCCCC3)cc2s1,"inconclusive: 21.2 µM [inhibitor, partial curve]",–
COc1ccc(N=C2C=CC(=O)O2)cc1,"inconclusive: 29.9 µM [inhibitor, single point]",–
Cc1ccc(C)c(S(=O)(=O)Nc2ccc3oc(C)c(C(=O)O)c3c2)c1,"inconclusive: 26.7 µM [inhibitor, partial curve]",–
COc1ccc(-c2cc(C(=O)NCCN3CCOCC3)c3ccccc3n2)c(OC)c1,–,inconclusive: -31.5% [inhibitor]
CCOC(=O)C1=C(C)N=c2s/c(=C/c3ccc(OCC(=O)O)cc3)c(=O)n2C1c1ccc(OC)cc1OC (stereo not given),–,inconclusive: -30.5% [inhibitor]
CCC(C(=O)c1ccccc1)P(=O)(NN)c1ccccc1 (stereo not given),–,inactive: 0.779%
NS(=O)(=O)c1ccc(CCNC(=O)c2cc(-c3ccco3)nc3ccccc23)cc1,"inconclusive: 21.2 µM [inhibitor, partial curve]",–
CC1CCN(C(=S)c2ccc(O)cc2)CC1,"inconclusive: 29.9 µM [inhibitor, partial curve]",–
O=S(=O)(Nc1ncccn1)c1ccc(NC(=S)Nc2ccccc2)cc1,–,inactive: -27.3%
S=C(Nc1ccc(-c2nc3ccccc3[nH]2)cc1)Nc1cccnc1,"inconclusive: 29.9 µM [inhibitor, partial curve]",–

# Reprinted from the results shown (16 entries):
Compound,Potency,"max response, negative = inhibition"
Cc1ccc(-c2csc(NC(=O)c3ccno3)n2)cc1,"inconclusive: 26.7 µM [inhibitor, partial curve]",–
Cc1cc2c3ccccc3[nH]c(=O)n2n1,–,inactive: -0.899%
COc1ccc(CC(=O)NNc2ncnc3c2cnn3-c2ccccc2)cc1,"inconclusive: 26.7 µM [inhibitor, single point]",–
COc1cc(/C=C2/C(=N)N3OC(C)=CC3=NC2=O)ccc1OCCOc1ccc(C)cc1,–,inactive: -3.1%
Cc1cc(C)nc(SCc2nnc(SCC(=O)Nc3nc(-c4ccccc4)cs3)n2-c2ccccc2)n1,"inconclusive: 26.7 µM [inhibitor, single point]",–
CCC(Cc1ccccc1)NC(=O)Cn1ncc2ccsc2c1=O (stereo not given),–,inactive: -11.4%
C=CCn1c(SCC(=O)N(C)C2CCS(=O)(=O)C2)nnc1-c1ccccc1 (stereo not given),–,inactive: -8.46%
Cc1onc(-c2ccccc2)c1C(=O)Nc1sc2c(c1C#N)CCC2,"inconclusive: 26.7 µM [inhibitor, partial curve]",–
Cc1cccc(OCC(=O)OCC(=O)Nc2sccc2C(N)=O)c1,–,inactive: -4.12%
COc1ccc(C(=O)O)cc1S(=O)(=O)Nc1ccc(C)cc1,–,inactive: -11.1%
c1ccc(OCc2nn3c(C4CCCCC4)nnc3s2)cc1,"inconclusive: 26.7 µM [inhibitor, partial curve]",–
Nc1ccc2c(c1)C(=O)C(=O)c1ccccc1-2,active: 1.5 µM,–
CCC(=O)Nc1ccc(NC(=O)CSc2nnnn2C(C)C)cc1,"inconclusive: 37.7 µM [inhibitor, single point]",–
COC(=O)c1ccc(-c2ccc(C(c3c(C)[nH][nH]c3=O)c3c(C)[nH][nH]c3=O)o2)cc1,active: 11.9 µM,–
Nc1nc2ccc(C(=O)NCCOC(=O)C3CCCCC3)cc2s1,"inconclusive: 21.2 µM [inhibitor, partial curve]",–
COc1ccc(N=C2C=CC(=O)O2)cc1,"inconclusive: 29.9 µM [inhibitor, single point]",–

# Next part

Compound,Potency,"max response, negative = inhibition"
Cn1c(/C(C#N)=C/c2cccc(O)c2)nc2ccccc21,active: 26.7 µM,–
FC(F)(F)c1cc(-c2ccco2)nc(-n2cnc3ccccc32)n1,–,inactive: -4.49%
COc1ccc(NC(=S)NCC2CCN(c3ccc(OC)cc3)C2)cc1 (stereo not given),"inconclusive: 26.7 µM [inhibitor, partial curve]",–
O=C(O)C(Cc1ccccc1)N1C(=O)/C(=C/c2ccccc2)SC1=S (stereo not given),"inconclusive: 26.7 µM [inhibitor, single point]",–
CCCOC(=S)NC(=O)c1sc2ccccc2c1Cl,"inconclusive: 26.7 µM [inhibitor, single point]",–
CC(=O)N1CCN(C(=O)COc2ccc(N(C)S(=O)(=O)c3cccs3)cc2)CC1,"inconclusive: 26.7 µM [inhibitor, partial curve]",–
CCOC(=O)C1(C)CCCCN1C(=O)c1cccc(Cl)c1 (stereo not given),–,inactive: -2.12%
O=C(NC1CCCC1)C1CCCN(S(=O)(=O)c2cccc3cccnc23)C1 (stereo not given),"inconclusive: 26.7 µM [inhibitor, single point]",–
CC(C)C[C@@H](CN)NC(=O)c1nc[nH]c1C(=O)N[C@@H](C)C(=O)CNC[C@H](C)NC(=O)c1nc[nH]c1C(=O)N[C@@H](C)C(=O)O,"inconclusive: 21.2 µM [inhibitor, single point]",–
COc1ccc(S(=O)(=O)NNC(=O)c2sccc2-n2cccc2)cc1,–,inactive: -8.71%
COc1cc(CN2CCC(Cc3ccccc3)CC2)c([N+](=O)[O-])cc1OC,"inconclusive: 37.7 µM [inhibitor, partial curve, poor fit]",–
O=C(CSCc1ccccc1Cl)N/N=C/c1ccco1,"inconclusive: 29.9 µM [inhibitor, single point]",–
COc1ccc(/C(O)=C2/C(=O)C(=O)N(CCN(C)C)C2c2cccnc2)cc1OC (stereo not given),–,inactive: -10.7%
CCN(CC)C(=O)c1sc(N)c(C#N)c1C,active: 23.8 µM,–
CCc1cc(SC#N)cc(C)c1NC(=O)CCl,active: 11.9 µM,–
COc1ccc(Nc2nc(N)nc(CSc3n[nH]c(-c4ccccc4)n3)n2)cc1,"inconclusive: 37.7 µM [inhibitor, single point]",–
Oc1c(N=Nc2ccccc2)sc2ccccc12,–,inactive: -13.9%
O=C(O)c1cccc(NC(=S)N/N=C/c2ccccc2OCc2ccc(Br)cc2)c1,active: 23.8 µM,–
CCc1cc[n+](-c2nc([O-])sc2C=O)cc1,"inconclusive: 21.2 µM [inhibitor, partial curve]",–
CO/C=C\C=C/c1nnn(-c2ccc(Cl)cc2)n1,"inconclusive: 10.6 µM [inhibitor, partial curve]",–
Cc1nc(NC(=O)CSc2cc(C)c3ccccc3n2)c(Cl)cc1Cl,"inconclusive: 23.8 µM [inhibitor, partial curve]",–
COc1ccc(OC)c(NC(=O)c2sc3ncnc(N4CCN(c5ccccn5)CC4)c3c2C)c1,"inconclusive: 23.8 µM [inhibitor, single point]",–

# Source: PubChem BioAssay AID720504 (National Center for Advancing Translational Sciences (NCATS), 2013)
